The list shows a part of the results.
Legend:
Test in all cases: log2 fold change, soluble protein after heating vs DMSO (PISA); higher = thermal stabilisation; K562 lysate, 10 uM; active = over 0.2 and 3.5 SD of the protein, either way, in both replicates (recomputed)
ibrutinib = compound: C=CC(=O)N1CCC[C@@H](n2nc(-c3ccc(Oc4ccccc4)cc3)c3c(N)ncnc32)C1 [ibrutinib]
Outline: (§1)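 Following dounce homogenisation of K562 pellets in PBS pH 7.4 with 1 mM MgCl2, crude extract at 1 mg/mL protein was incubated for 30 min with 10 μM compound. Aliquots were then heated for 3 min over 48°C-58°C and pooled, NP-40 was added to 0.5% at 4°C, and soluble protein was recovered as the supernatant at 21,000xg for 90 min. Channel-sum-equalised TMTpro 16plex LC-MS/MS quantified this protein. Each value, from duplicates, is a log-two fold change in thermal stability relative to solvent controls.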

Sequences of proteins named here, by UniProt entry; tags and fusion partners are left off. A change or cut given only in a name is not applied to a line headed by its entry.
UniProt P62330: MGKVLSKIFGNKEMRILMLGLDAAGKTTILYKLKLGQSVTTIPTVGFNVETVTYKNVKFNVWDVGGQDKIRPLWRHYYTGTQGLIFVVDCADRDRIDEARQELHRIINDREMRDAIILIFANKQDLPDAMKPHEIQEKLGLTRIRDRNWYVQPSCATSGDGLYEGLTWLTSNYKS
UniProt Q13795: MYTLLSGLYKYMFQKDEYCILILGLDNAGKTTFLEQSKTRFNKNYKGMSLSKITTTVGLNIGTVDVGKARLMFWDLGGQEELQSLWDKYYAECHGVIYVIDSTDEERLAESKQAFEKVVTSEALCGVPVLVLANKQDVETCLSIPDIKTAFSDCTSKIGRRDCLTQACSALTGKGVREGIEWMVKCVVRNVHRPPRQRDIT
UniProt Q13017, whole entry, looked up: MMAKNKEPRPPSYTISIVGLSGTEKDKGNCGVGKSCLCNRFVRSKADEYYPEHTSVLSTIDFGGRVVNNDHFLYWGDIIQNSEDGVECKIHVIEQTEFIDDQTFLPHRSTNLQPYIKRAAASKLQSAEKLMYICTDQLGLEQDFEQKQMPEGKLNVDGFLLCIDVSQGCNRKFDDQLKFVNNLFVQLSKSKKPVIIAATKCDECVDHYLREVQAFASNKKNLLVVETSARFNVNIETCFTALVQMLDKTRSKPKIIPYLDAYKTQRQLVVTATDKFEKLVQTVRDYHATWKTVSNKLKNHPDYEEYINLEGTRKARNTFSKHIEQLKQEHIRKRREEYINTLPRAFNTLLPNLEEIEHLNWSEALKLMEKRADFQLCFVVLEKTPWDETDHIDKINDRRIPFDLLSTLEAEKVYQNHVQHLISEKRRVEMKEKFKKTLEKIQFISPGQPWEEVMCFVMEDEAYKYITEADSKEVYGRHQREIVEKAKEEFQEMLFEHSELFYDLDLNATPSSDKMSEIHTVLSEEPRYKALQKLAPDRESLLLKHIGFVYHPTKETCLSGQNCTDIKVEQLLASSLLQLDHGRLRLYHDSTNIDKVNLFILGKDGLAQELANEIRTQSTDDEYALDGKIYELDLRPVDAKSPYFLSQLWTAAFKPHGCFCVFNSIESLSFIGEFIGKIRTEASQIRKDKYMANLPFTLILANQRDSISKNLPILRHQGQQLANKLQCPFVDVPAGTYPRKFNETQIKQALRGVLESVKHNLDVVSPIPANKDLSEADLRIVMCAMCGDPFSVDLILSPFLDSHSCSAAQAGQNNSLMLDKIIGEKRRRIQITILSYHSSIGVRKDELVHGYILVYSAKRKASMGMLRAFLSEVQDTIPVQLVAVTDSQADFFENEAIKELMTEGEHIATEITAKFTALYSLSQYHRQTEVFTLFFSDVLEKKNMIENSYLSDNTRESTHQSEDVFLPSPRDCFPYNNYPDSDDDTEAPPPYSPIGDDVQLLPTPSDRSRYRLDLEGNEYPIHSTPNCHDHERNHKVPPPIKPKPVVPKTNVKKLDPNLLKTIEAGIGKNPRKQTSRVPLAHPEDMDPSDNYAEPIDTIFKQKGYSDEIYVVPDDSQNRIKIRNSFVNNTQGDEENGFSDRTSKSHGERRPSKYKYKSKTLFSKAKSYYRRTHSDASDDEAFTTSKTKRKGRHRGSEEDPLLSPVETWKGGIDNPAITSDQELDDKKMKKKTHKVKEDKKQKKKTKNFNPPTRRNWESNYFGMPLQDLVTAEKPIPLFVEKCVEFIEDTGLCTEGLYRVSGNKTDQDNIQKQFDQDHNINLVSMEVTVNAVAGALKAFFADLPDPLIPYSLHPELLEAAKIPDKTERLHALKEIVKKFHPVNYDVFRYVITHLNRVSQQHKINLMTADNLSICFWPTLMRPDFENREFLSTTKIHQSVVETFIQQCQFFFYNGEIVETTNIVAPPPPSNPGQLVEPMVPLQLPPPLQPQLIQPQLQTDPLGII
UniProt Q8TDY4: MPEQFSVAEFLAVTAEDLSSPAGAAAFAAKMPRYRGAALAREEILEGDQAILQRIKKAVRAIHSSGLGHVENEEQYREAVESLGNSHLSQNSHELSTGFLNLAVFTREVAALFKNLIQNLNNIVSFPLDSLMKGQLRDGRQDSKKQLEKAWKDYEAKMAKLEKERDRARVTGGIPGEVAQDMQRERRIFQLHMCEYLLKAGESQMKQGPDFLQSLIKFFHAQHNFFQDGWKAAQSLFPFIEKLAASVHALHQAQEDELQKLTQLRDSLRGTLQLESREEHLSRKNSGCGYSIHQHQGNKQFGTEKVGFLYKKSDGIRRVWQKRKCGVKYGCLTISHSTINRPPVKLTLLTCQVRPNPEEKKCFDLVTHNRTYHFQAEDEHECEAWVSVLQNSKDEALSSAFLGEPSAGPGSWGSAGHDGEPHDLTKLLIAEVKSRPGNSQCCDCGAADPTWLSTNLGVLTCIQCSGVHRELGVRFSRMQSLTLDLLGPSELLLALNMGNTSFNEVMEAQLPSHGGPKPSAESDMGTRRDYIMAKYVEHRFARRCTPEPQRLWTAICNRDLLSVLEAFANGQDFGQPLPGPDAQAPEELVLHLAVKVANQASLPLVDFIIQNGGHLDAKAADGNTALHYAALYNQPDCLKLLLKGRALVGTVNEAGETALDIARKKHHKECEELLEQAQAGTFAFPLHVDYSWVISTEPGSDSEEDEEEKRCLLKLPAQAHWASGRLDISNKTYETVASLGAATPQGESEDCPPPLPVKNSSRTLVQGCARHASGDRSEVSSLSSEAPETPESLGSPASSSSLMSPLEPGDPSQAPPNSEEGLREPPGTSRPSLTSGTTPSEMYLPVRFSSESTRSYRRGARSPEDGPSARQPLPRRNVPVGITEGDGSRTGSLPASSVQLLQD
UniProt Q99767, whole entry, looked up: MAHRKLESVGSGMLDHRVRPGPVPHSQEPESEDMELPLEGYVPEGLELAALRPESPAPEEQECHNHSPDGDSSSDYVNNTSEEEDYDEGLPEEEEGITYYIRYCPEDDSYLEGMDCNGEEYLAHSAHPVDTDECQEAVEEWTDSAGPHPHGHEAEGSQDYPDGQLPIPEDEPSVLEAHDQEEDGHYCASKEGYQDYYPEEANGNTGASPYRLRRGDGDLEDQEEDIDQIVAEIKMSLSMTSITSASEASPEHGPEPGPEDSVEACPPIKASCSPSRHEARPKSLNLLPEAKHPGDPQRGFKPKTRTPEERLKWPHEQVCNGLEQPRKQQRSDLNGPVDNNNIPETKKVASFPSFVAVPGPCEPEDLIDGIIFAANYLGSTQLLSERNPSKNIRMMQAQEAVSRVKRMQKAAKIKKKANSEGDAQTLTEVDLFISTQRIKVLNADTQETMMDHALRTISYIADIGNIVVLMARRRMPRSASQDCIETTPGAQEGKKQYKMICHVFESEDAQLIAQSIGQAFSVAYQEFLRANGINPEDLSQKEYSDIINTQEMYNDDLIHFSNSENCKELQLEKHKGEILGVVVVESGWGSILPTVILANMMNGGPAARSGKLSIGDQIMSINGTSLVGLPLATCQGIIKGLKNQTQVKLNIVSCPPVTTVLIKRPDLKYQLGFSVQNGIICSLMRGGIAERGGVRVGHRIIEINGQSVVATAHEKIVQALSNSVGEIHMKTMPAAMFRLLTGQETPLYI
UniProt Q9ULH1: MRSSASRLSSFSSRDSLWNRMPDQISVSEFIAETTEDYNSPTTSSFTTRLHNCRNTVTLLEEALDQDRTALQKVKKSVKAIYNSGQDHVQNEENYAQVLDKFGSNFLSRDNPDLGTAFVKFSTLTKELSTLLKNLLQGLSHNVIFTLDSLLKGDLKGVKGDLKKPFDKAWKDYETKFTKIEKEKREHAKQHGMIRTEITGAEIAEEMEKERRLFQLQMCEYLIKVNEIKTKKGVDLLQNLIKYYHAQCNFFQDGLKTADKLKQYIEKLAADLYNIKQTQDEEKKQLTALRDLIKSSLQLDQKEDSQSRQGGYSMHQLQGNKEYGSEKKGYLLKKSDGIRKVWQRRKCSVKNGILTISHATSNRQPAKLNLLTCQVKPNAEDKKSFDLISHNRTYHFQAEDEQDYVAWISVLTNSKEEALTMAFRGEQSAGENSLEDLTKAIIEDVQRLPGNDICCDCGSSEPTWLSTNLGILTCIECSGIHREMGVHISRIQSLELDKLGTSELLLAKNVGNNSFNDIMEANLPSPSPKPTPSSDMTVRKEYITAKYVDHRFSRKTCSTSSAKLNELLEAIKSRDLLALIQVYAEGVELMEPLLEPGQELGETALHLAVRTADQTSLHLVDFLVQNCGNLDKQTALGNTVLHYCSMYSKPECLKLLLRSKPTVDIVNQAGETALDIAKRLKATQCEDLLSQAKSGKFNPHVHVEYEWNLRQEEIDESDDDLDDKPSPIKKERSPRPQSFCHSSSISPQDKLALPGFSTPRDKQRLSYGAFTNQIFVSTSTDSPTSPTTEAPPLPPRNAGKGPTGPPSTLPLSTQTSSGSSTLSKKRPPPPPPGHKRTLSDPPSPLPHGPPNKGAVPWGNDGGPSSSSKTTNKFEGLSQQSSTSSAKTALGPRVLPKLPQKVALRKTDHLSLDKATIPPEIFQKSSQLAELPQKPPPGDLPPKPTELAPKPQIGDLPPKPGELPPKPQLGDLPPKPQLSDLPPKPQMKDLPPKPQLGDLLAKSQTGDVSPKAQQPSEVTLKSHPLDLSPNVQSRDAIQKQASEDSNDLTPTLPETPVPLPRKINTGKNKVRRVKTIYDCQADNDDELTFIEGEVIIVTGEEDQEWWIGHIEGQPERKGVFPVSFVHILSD
UniProt Q6UXV4: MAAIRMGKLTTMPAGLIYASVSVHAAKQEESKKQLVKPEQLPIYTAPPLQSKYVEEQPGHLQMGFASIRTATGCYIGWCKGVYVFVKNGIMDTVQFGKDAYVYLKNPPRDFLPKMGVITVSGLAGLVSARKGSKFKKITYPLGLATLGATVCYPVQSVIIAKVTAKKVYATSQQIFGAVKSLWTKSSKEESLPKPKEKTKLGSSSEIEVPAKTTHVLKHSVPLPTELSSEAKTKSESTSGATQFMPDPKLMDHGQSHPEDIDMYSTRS
UniProt Q9NZN5: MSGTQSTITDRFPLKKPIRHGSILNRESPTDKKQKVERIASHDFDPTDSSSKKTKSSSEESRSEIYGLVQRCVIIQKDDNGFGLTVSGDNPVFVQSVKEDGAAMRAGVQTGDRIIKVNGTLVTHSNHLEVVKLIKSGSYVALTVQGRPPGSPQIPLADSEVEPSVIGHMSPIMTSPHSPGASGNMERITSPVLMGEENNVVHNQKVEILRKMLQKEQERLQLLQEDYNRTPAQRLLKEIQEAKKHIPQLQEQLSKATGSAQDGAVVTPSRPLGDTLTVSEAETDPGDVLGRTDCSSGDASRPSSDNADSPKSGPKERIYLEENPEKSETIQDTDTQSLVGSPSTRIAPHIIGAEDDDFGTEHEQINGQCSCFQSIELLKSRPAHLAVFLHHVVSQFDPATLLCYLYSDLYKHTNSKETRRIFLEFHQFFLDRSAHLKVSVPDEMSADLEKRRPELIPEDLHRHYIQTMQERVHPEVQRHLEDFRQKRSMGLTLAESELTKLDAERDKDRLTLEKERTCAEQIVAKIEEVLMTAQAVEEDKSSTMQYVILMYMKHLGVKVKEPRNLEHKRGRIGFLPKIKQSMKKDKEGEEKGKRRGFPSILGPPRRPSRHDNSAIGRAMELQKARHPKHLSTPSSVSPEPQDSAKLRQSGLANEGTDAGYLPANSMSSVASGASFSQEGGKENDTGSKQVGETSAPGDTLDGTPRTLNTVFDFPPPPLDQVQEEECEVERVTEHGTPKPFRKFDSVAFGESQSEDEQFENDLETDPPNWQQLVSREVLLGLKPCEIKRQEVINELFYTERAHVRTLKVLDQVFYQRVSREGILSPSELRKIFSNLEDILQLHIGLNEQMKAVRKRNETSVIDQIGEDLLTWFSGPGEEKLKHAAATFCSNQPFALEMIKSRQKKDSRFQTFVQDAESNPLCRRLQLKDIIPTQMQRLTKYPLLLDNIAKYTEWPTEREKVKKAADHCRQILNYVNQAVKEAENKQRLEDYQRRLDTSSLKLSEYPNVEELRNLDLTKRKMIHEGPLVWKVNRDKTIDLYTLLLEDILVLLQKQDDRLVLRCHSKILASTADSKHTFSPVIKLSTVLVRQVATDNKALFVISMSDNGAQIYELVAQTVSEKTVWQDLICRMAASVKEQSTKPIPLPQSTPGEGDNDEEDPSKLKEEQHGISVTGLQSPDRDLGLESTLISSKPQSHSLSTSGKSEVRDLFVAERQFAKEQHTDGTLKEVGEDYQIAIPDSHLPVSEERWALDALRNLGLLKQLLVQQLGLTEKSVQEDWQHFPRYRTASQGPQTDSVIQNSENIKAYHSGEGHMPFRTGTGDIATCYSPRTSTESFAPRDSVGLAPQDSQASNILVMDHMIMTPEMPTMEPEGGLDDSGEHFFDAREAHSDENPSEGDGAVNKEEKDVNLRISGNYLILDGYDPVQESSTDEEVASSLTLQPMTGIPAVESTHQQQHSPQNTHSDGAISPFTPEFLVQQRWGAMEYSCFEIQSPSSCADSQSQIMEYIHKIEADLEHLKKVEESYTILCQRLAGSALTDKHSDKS

[1] = compound: CC(=O)c1cnc2ccc(-c3cc(Cl)c(O)c(Cl)c3)nc2c1N[C@H]1CC[C@H](CN(C)C)CC1
Outline: as §1

ralimetinib = compound: CC(C)(C)Cn1c(N)nc2ccc(-c3[nH]c(C(C)(C)C)nc3-c3ccc(F)cc3)nc21 [ralimetinib]
Outline: as §1

[2] = compound: CC(C)(O)CC(=O)NCCn1ccc2ncnc(Nc3ccc(Oc4cccc(C(F)(F)F)c4)c(Cl)c3)c21
Outline: as §1

[3] = compound: CC(C)C1=C2N=C(C=C(N2N=C1)NCC3=CC=CC=C3)NCCCCCCN
Outline: as §1

[4] = compound: CC1=C(C(CC(=O)N1)C2=CC=C(C=C2)C(F)(F)F)C(=O)NC3=C(C=C4C(=C3)C=NN4)F
Outline: as §1

[5] = compound: CC1=C(C2=C(C=C1)C(=O)C3=CC=CC=C3N2CCCN)C
Outline: as §1

[6] = compound: CC1=C(C=C(C=C1)NC(=O)C2=CC(=CC=C2)C(C)(C)C#N)NC3=CC4=C(C=C3)N=CN(C4=O)C
Outline: as §1

[7] = compound: CC1=C(C=C(C=C1)NC(=O)C2=CC(=CC=C2)N(C)C)NC(=O)C3=CC=C(C=C3)O
Outline: as §1

[8] = compound: CC1=CC=C(C=C1)SC2=C3C=C(SC3=CN=C2)C(=O)N
Outline: as §1

vemurafenib = compound: CCCS(=O)(=O)Nc1ccc(F)c(C(=O)c2c[nH]c3ncc(-c4ccc(Cl)cc4)cc23)c1F [vemurafenib]
Outline: as §1

[9] = compound: CCCS(=O)(=O)Nc1ccc(F)c(C(=O)c2c[nH]c3ncc(Cl)cc23)c1F
Outline: as §1

barasertib = compound: CCN(CCCOc1ccc2c(Nc3cc(CC(=O)Nc4cccc(F)c4)[nH]n3)ncnc2c1)CCOP(=O)(O)O [barasertib]
Outline: as §1

[10] = compound: CC[C@@H]1C(=O)N(C)c2cnc(Nc3ccc(C(=O)NC4CCN(C)CC4)cc3OC)nc2N1C1CCCC1
Outline: as §1

volasertib = compound: CC[C@@H]1C(=O)N(C)c2cnc(Nc3ccc(C(=O)N[C@H]4CC[C@H](N5CCN(CC6CC6)CC5)CC4)cc3OC)nc2N1C(C)C [volasertib]
Outline: as §1

[11] = compound: CCn1c(C(=O)N(C2CC2)C2CC2)cc2c3c(ncn3C)c(Nc3cc(C)n(C)n3)nc21
Outline: as §1

[12] = compound: CCn1cc(-c2ccnc3[nH]c(-c4cccc(CN(C)C)c4)cc23)c(-c2ccc(NC(=O)N(C)C)cc2)n1
Outline: as §1

[13] = compound: CN1CCC(CNc2ccc3ncc(-c4cccc(OC(F)(F)F)c4)n3n2)CC1
Outline: as §1

saracatinib = compound: CN1CCN(CCOc2cc(OC3CCOCC3)c3c(Nc4c(Cl)ccc5c4OCO5)ncnc3c2)CC1 [saracatinib]
Outline: as §1

sotrastaurin = compound: CN1CCN(c2nc(C3=C(c4c[nH]c5ccccc45)C(=O)NC3=O)c3ccccc3n2)CC1 [sotrastaurin]
Outline: as §1

Measured: log2 fold change

ARF6 (UniProt P62330)
inactive: ibrutinib 0.051 | [1] -0.004 | ralimetinib 0.037 | [2] -0.027 | [3] -0.082 | [4] -0.027 | [5] 0.002 | [6] 0.018 | [7] -0.071 | [8] -0.012 | vemurafenib -0.033 | [9] -0.025 | barasertib -0.124 | [10] -0.007 | volasertib -0.028 | [11] -0.006 | [12] -0.085 | [13] 0.061 | saracatinib -0.044 | sotrastaurin 0.018

ARPP19 (UniProt H3BMD8)
inactive: ibrutinib 0.016 | [1] -0.011 | ralimetinib 0.044 | [2] -0.054 | [3] -0.018 | [4] -0.005 | [5] 0.004 | [6] 0.022 | [7] -0.006 | [8] -0.06 | vemurafenib 0.001 | [9] -0.004 | barasertib -0.001 | [10] 0.145 | volasertib 0.001 | [11] -0.055 | [12] -0.199 | [13] 0.171 | saracatinib 0.016 | sotrastaurin 0.093

ARFRP1 (UniProt Q13795)
inactive: ibrutinib -0.013 | [1] -0.02 | ralimetinib 0.027 | [2] -0.023 | [3] -0.042 | [4] 0.057 | [5] 0.051 | [6] -0.047 | [7] 0.031 | [8] 0.023 | vemurafenib 0.063 | [9] 0.094 | barasertib 0.024 | [10] 0.116 | volasertib -0.06 | [11] -0.022 | [12] 0.076 | [13] -0.06 | saracatinib 0.051 | sotrastaurin 0.047

ARHGAP5 (UniProt Q13017)
inactive: ibrutinib 0.066 | [1] -0.024 | ralimetinib 0.067 | [2] -0.04 | [3] -0.015 | [4] -0.007 | [5] -0.006 | [6] -0.003 | [7] 0.007 | [8] 0.016 | vemurafenib 0.019 | [9] 0.046 | barasertib 0.022 | [10] 0.037 | volasertib 0.02 | [11] 0.142 | [12] -0.026 | [13] -0.051 | saracatinib 0.004 | sotrastaurin 0.032

ARPC1B (UniProt O15143)
inactive: ibrutinib -0.028 | [1] -0.026 | ralimetinib 0.009 | [2] 0.017 | [3] -0.017 | [4] -0.007 | [5] -0.014 | [6] 0.007 | [7] 0.035 | [8] 0.008 | vemurafenib -0.042 | [9] 0.007 | barasertib 0 | [10] 0.045 | volasertib 0.025 | [11] -0.022 | [12] -0.003 | [13] -0.007 | saracatinib -0.057 | sotrastaurin 0.002

ARPC5L (UniProt Q9BPX5)
inactive: ibrutinib -0.053 | [1] -0.029 | ralimetinib -0.039 | [2] -0.079 | [3] 0.003 | [4] -0.037 | [5] -0.014 | [6] 0.025 | [7] 0.024 | [8] -0.044 | vemurafenib 0.011 | [9] -0.013 | barasertib 0.021 | [10] 0.058 | volasertib 0.018 | [11] -0.001 | [12] -0.023 | [13] 0.011 | saracatinib -0.033 | sotrastaurin -0.009

ARMCX3 (UniProt Q9UH62)
inactive: ibrutinib -0.073 | [1] -0.027 | ralimetinib 0.006 | [2] 0.013 | [3] -0.042 | [4] -0.053 | [5] -0.029 | [6] 0.004 | [7] 0.039 | [8] 0 | vemurafenib -0.024 | [9] 0.027 | barasertib 0.102 | [10] -0.033 | volasertib -0.045 | [11] 0.021 | [12] -0.01 | [13] -0.049 | saracatinib 0.012 | sotrastaurin 0.016

Quoted at random: two records from the list, in no set order.
ARMCX3 (UniProt Q9UH62)
inactive: ibrutinib -0.073 | [1] -0.027 | ralimetinib 0.006 | [2] 0.013 | [3] -0.042 | [4] -0.053 | [5] -0.029 | [6] 0.004 | [7] 0.039 | [8] 0 | vemurafenib -0.024 | [9] 0.027 | barasertib 0.102 | [10] -0.033 | volasertib -0.045 | [11] 0.021 | [12] -0.01 | [13] -0.049 | saracatinib 0.012 | sotrastaurin 0.016

ARHGAP5 (UniProt Q13017)
inactive: ibrutinib 0.066 | [1] -0.024 | ralimetinib 0.067 | [2] -0.04 | [3] -0.015 | [4] -0.007 | [5] -0.006 | [6] -0.003 | [7] 0.007 | [8] 0.016 | vemurafenib 0.019 | [9] 0.046 | barasertib 0.022 | [10] 0.037 | volasertib 0.02 | [11] 0.142 | [12] -0.026 | [13] -0.051 | saracatinib 0.004 | sotrastaurin 0.032

Going on with the list:

ASAP3 (UniProt Q8TDY4)
inactive: ibrutinib -0.05 | [1] 0.011 | ralimetinib 0.032 | [2] -0.099 | [3] 0.001 | [4] -0.015 | [5] -0.002 | [6] -0.038 | [7] 0.012 | [8] -0.004 | vemurafenib 0.1 | [9] 0.023 | barasertib 0.526 | [10] -0.009 | volasertib -0.041 | [11] -0.045 | [12] 0.082 | [13] 0.06 | saracatinib 0.03 | sotrastaurin 0.055

ARHGAP21 (UniProt Q5T5U3)
inactive: ibrutinib 0.016 | [1] 0.047 | ralimetinib 0.017 | [2] -0.047 | [3] 0.022 | [4] 0.077 | [5] -0.053 | [6] 0.062 | [7] 0.052 | [8] -0.015 | vemurafenib 0.107 | [9] 0.073 | barasertib 0.061 | [10] -0.01 | volasertib -0.027 | [11] 0.037 | [12] 0.043 | [13] -0.202 | saracatinib 0.034 | sotrastaurin 0.023

APBA2 (UniProt Q99767)
inactive: ibrutinib -0.038 | [1] -0.012 | ralimetinib 0.032 | [2] -0.022 | [3] 0.024 | [4] 0.013 | [5] -0.025 | [6] -0.027 | [7] 0.007 | [8] 0.016 | vemurafenib 0.003 | [9] 0 | barasertib 0.035 | [10] -0.043 | volasertib 0.017 | [11] -0.028 | [12] -0.157 | [13] 0.15 | saracatinib 0.021 | sotrastaurin 0.057

APOO (UniProt Q9BUR5)
inactive: ibrutinib 0.023 | [1] 0.055 | ralimetinib 0.02 | [2] -0.039 | [3] -0.027 | [4] -0.012 | [5] -0.025 | [6] -0.024 | [7] 0.052 | [8] 0.006 | vemurafenib -0.074 | [9] 0.008 | barasertib 0.056 | [10] -0.107 | volasertib 0.051 | [11] -0.036 | [12] 0.052 | [13] -0.03 | saracatinib -0.002 | sotrastaurin 0.005

ASAP1 isoform 2 (UniProt Q9ULH1)
inactive: ibrutinib 0.016 | [1] -0.007 | ralimetinib 0.037 | [2] -0.02 | [3] 0 | [4] -0.037 | [5] -0.009 | [6] 0.009 | [7] 0.007 | [8] 0.016 | vemurafenib -0.016 | [9] 0.025 | barasertib -0.023 | [10] 0.012 | volasertib -0.011 | [11] -0.015 | [12] -0.01 | [13] 0.017 | saracatinib 0.007 | sotrastaurin 0.017

APOOL (UniProt Q6UXV4)
inactive: ibrutinib -0.01 | [1] -0.011 | ralimetinib -0.013 | [2] -0.027 | [3] -0.017 | [4] 0.039 | [5] -0.032 | [6] -0.004 | [7] 0.027 | [8] 0.012 | vemurafenib -0.006 | [9] 0.032 | barasertib -0.001 | [10] 0.036 | volasertib 0.031 | [11] -0.018 | [12] -0.087 | [13] 0.013 | saracatinib -0.007 | sotrastaurin -0.011

ARF4 (UniProt P18085)
inactive: ibrutinib -0.005 | [1] -0.035 | ralimetinib 0.042 | [2] -0.014 | [3] -0.027 | [4] -0.01 | [5] -0.005 | [6] 0.037 | [7] -0.046 | [8] -0.034 | vemurafenib 0 | [9] -0.029 | barasertib 0.034 | [10] -0.125 | volasertib -0.054 | [11] 0.042 | [12] -0.192 | [13] 0.11 | saracatinib -0.024 | sotrastaurin -0.036

ASAH1 isoform 2 (UniProt Q13510)
inactive: ibrutinib -0.058 | [1] -0.042 | ralimetinib 0.038 | [2] -0.011 | [3] 0.039 | [4] 0.104 | [5] 0.017 | [6] 0.016 | [7] -0.045 | [8] 0.037 | vemurafenib 0.019 | [9] 0.018 | barasertib -0.051 | [10] -0.009 | volasertib 0.056 | [11] -0.019 | [12] -0.119 | [13] 0.081 | saracatinib 0.035 | sotrastaurin 0.034

ARHGEF12 (UniProt Q9NZN5)
inactive: ibrutinib -0.033 | [1] -0.005 | ralimetinib 0.032 | [2] -0.043 | [3] 0.01 | [4] 0.003 | [5] -0.029 | [6] -0.04 | [7] 0.025 | [8] -0.015 | vemurafenib 0.014 | [9] 0.026 | barasertib 0.051 | [10] 0.003 | volasertib 0.006 | [11] 0.041 | [12] -0.226 | [13] 0.055 | saracatinib 0.031 | sotrastaurin 0.029

Source: the supplement of paper PMC10849652
